Patent US20210253713A1 (ABEXXA BIOLOGICS, published 2021)
No constants are given. Whether binding was seen depends on the method and setting. Some binding calls cover weakened binding; strength is not graded here. Values belong to the binder of their own block, whether it stands above or below them.

Assays:
[1] = target: T1, HLA-E/… peptide complex (soluble, biotin-labeled) (human) (UniProt P13747+P61769); assay: ELISA, immobilized antibody, soluble complex (FIG. 1A)
[2] = target: T2, HLA-E/… target on tumor cells (JEG-3 and JVM-2 cells, positive for HLA-E and HLA-G) (human) (UniProt P13747+P61769); assay: flow cytometry on JEG-3 and JVM-2 cells, antibody at 1 ug/ml
[3] = target: T2, HLA-E/… target on tumor cells (JEG-3 and JVM-2 cells, positive for HLA-E and HLA-G) (human); assay: flow cytometry on JEG-3 cells, goat anti-human IgG-APC (FIG. 3B)
[4] = target: T2, HLA-E/… target on tumor cells (JEG-3 and JVM-2 cells, positive for HLA-E and HLA-G) (human); assay: flow cytometry on JVM-2 cells, goat anti-human IgG-APC (FIG. 4B)
[5] = target: T1, HLA-E/… peptide complex (soluble, biotin-labeled) (human); assay: ELISA, biotin-labeled complex on neutravidin plates, soluble bivalent IgG1, anti-human-HRP
[6] = target: T1, HLA-E/… peptide complex (soluble, biotin-labeled) (human); assay: validation of phage scFv clones after the third round of panning

- binding [1]: binds
- binding [2]: binds
- binding [3]: binds
- binding [4]: binds
- binding [5]: binds
B1: MAB-031 (anti-HLA-E/…) (antibody, V domains shown)
VH: QVQLQQSGPELVKPGASVKMSCKASGYTFTDYVISWVKQRTGQGLEWIGEIYPGNNTTYYNDNFRGKATLTVDKSSSTAYMQLSSLTSEDSAVYYCARESLGIYYGSTYKGLYAMDYWGQGTTLTVSS
VL: QIVLTQSPAIMSASPGEKVTITCSASSSVSYMHWFQQKPGTSPKLWIYSTSNLASGVPARFSGSGSGTSYSLTISRMEAEDAATYYCQQRSSYPPTFGAGTKLELKR
notes: also called MAB31; MAB-31

- binding [6]: binds
B2: scFv clone used to produce MAB-031 (scFv, V domains shown)
VH: B1 VH
VL: B1 VL
